Out of some 360,000 compounds screened, about 7,500 (2.1%) were called active. Inconclusive results, whose numbers are uncertain, are shown with a selection of clear calls. Calls come from the whole dose curve; as a rule, active = well fitted inhibition curve with a large enough effect; inconclusive = small, poorly fitted or top-dose-only effect, or effect the other way; inactive = flat fitted curve, though single readings scatter. Potencies of inconclusive entries are doubtful fits and often do not repeat.
Assay: Nrf2 qHTS screen for inhibitors; note: nearly all actives have a fitted effect of over 60% in size
Conditions: A549 ARE-Fluc reporter, luciferase luminescence, 18-24 h; series mostly up to 46 µM
Procedure, shortened: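 A549 ARE_Fluc cells (5000/well, 5% FBS OPTI-MEM) pre-incubated 2 h, then treated with compounds 18-24 h at 37C/5% CO2 in concentration-response. CellTiter-Fluor viability read first; BugLite luciferase luminescence after 15 min at room temperature gives Nrf2 activity.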
Potency is the fitted concentration of half-maximal effect.

| SMILES | Potency |
| --- | --- |
| CCn1c(=O)c(=O)n(CC)c2cc(S(=O)(=O)N3CCc4ccccc43)ccc21 | inconclusive: 18.4 µM [falling, partial curve] |
| C=CCN1c2ccccc2[C@]23C[C@@H](C(=O)OC)N(C(=O)CC(C)C)C2=NC(C(=O)OC)=C(C(=O)OC)[C@H]13 | inconclusive: 29.1 µM [falling, single point] |
| C(=N\Nc1nc2ccccc2[nH]1)/c1ccc2c(c1)OCCO2 | active: 2.59 µM |
| O=C(Cc1nnc(-c2cc3ccccc3[nH]2)s1)Nc1cc(C(F)(F)F)ccc1Cl | inactive |
| O=C(NC(=S)Nc1nc(-c2cccc([N+](=O)[O-])c2)cs1)c1ccccc1Cl | inconclusive: 29.1 µM [falling, single point] |
| CC(C)Cc1cc(-c2ccco2)c(C#N)c(N)n1 | inconclusive: 2.59 µM [falling, partial curve, poor fit] |
| CCc1cc(C(=O)NNC(=S)NC(C)c2ccccc2)cs1 (configuration not stated) | inconclusive: 20.6 µM [falling, single point] |
| CCOC(=O)c1cc(NC(=O)c2ccc(OC)cc2)c(=O)oc1-c1ccccc1 | inconclusive: 1.16 µM [falling, partial curve, poor fit] |
| COc1cc2c(cc1NC(=O)Nc1ccccc1)oc1ccccc12 | inconclusive: 29.1 µM [falling, single point] |
| COC(=O)c1ccccc1NC(=O)c1ccc2c(c1)C(=O)N(Cc1ccco1)C2=O | inactive |
| CCN1C(=O)c2cccc3c(S(=O)(=O)Nc4ccccc4OC)ccc1c23 | inconclusive: 29.1 µM [falling, single point] |
| COc1cccc(NC(=O)CSc2nnc(-c3cccc(OC)c3)o2)c1 | inconclusive: 16.4 µM [activator, single point] |
| Cc1ccc(S(=O)(=O)CCSc2n[nH]c(=O)n2-c2ccccc2)cc1 | inconclusive: 32.6 µM [falling, partial curve, poor fit] |
| O=C(Nc1nccs1)c1sc2ccccc2c1Cl | inconclusive: 6.51 µM [activator, partial curve, poor fit] |
| Cc1nn(-c2ccc(F)cc2)c(Cl)c1/C=N/NC(=O)c1cccc(S(=O)(=O)N2CCCC2)c1 | inactive |
| COc1ccc(C(=O)NCc2ccc(N3CCN(C(=O)OC(C)(C)C)CC3)cc2)cc1 | inconclusive: 14.6 µM [falling, partial curve] |
| CC(C)(C)OC(=O)NCCCCCNC(=O)c1nc[nH]c1C(=O)NCc1ccccc1 | inconclusive: 25.9 µM [falling, single point] |
| CC(=O)N=c1sc2ccccc2n1C | inactive |
| O=c1c2ccc(Cl)cc2nc(-c2cccc(C(F)(F)F)c2)n1O | active: 23.1 µM |
| COc1ccc(-[n+]2c(C)cc(/C=C3\Sc4ccccc4N3C)cc2C)cc1 | active: 0.231 µM |
| CCOc1ccc(S(=O)(=O)NCCC(=O)N2CC=C(c3ccccc3)CC2)cc1 | inconclusive: 16.4 µM [falling, single point] |
| Fc1ccc(COc2cccc(CNCc3ccncc3)c2)cc1 | active: 14.6 µM |
| CCOc1c(OC)cccc1C1CC(=O)Nc2cc3c(cc21)OCCO3 (configuration not stated) | inactive |

| SMILES | Potency |
| --- | --- |
| CCc1cc(Cn2nc(-c3ccccc3)cc2C(=O)NCc2cccs2)on1 | inconclusive: 25.9 µM [falling, single point] |
| Cc1ccc(-c2csc3nc(C)n(-n4c(C)ccc4C)c(=O)c23)o1 | inactive |
| Cc1cc(-c2nnc(SCC(=O)Nc3nc(-c4ccccc4)cs3)o2)no1 | inconclusive: 29.1 µM [activator, single point] |
| COc1cccc(C2CC(=O)Nc3c2ccc(C)c3C)c1OC (configuration not stated) | inconclusive: 14.6 µM [falling, partial curve] |
| CSc1ccc(C2C(C(=O)Nc3ccccc3)=C(C)Nc3nc4ccccc4n32)cc1 (configuration not stated) | inconclusive: 16.4 µM [falling, partial curve, poor fit] |
| Cc1nnc(SCc2cc(=O)[nH]c(N3CCCCC3)n2)s1 | inconclusive: 9.2 µM [activator, partial curve] |
| COC(=O)c1ccc(C2c3c(n[nH]c3C)C(=O)N2c2ccc(C)cc2)cc1 (configuration not stated) | inconclusive: 36.6 µM [falling, single point] |
| Cc1ccc(NC(=O)/C(Cl)=C/c2ccccc2)cc1C | inconclusive: 4.11 µM [activator, single point] |
| O=[N+]([O-])c1ccc(/C=N/Nc2nc(N3CCCC3)nc(N3CCCC3)n2)o1 | active: 23.1 µM |
| COc1cc(OC)c(NC(=O)N2CCc3c([nH]c4ccccc34)C2c2ccccc2F)cc1Cl (configuration not stated) | inactive |
| O=C(Nc1ccccc1F)c1ccc(Cn2nc(N3CCN(c4ccccc4)CC3)ccc2=O)o1 | active: 20.6 µM |
| COc1ccccc1NC(=O)c1ccc(COc2ccc3c(c2)CCC3)cc1 | inactive |
| CC(=O)O[C@]1(C(C)=O)CC[C@H]2[C@@H]3C=C(C)C4=CC(=O)CC[C@]4(C)[C@H]3CC[C@@]21C | active: 0.731 µM |
| O=C(CNC(=S)NC(=O)c1ccco1)c1ccccc1 | inconclusive: 1.16 µM [activator, partial curve, poor fit] |
| O=C(NCc1ccco1)c1cc2nc(-c3cccs3)cc(C(F)(F)F)n2n1 | inconclusive: 1.84 µM [falling, full curve, poor fit] |
| Cc1cc(C)c(NC(=O)CN2C(=O)c3cccnc3Sc3ccccc32)c(C)c1 | inconclusive: 29.1 µM [activator, single point] |
| O=C(CCC(=O)N1CC2CCCN2c2ccccc21)NCc1ccc(F)cc1 (configuration not stated) | inconclusive: 29.1 µM [activator, single point] |
| CCCNC(=O)c1oc2ccc3c(c2c1C)C(=O)CC(C)(C)O3 | inconclusive: 1.84 µM [activator, partial curve, poor fit] |
| O=C(NC(=S)Nc1ccc(CN2CCOCC2)cc1)c1ccco1 | inconclusive: 29.1 µM [activator, single point] |
| O=C(Nc1ccc2nc(SCC(=O)N3CCc4ccccc43)sc2c1)c1ccccc1 | inactive |
| CCOC(=O)c1c(C)[nH]c(C)c1S(=O)(=O)N1CCCC(C(=O)Nc2cc(C)ccc2C)C1 (configuration not stated) | inconclusive: 14.6 µM [activator, partial curve, poor fit] |
| CCCCC(=O)Nc1cnc(NC(=O)c2cccs2)cc1C | inconclusive: 2.31 µM [activator, full curve] |
| O=C(Nc1cccc(Cl)c1N1CCCC1)c1cccc(-c2cc3ccccc3oc2=O)c1 | inconclusive: 3.66 µM [activator, single point] |

| SMILES | Potency |
| --- | --- |
| COc1ccccc1NS(=O)(=O)c1ccc(NC(=O)c2ccccn2)cc1 | active: 20.6 µM |
| CC(=O)c1ccc(NC(=O)COc2ccccc2-c2nc(-c3ccc(C)cc3)no2)cc1 | active: 25.9 µM |
| Cn1c(=O)n(Cc2ccc(Cl)cc2)c(=O)c2c1nc1n2CCN1Cc1ccco1 | inconclusive: 14.6 µM [falling, partial curve] |
| CCOc1ccc(-c2cnc(NCc3cccc4ccccc34)n2CCOC)cc1 | inconclusive: 29.1 µM [falling, single point] |
| OCCC1CN(CCCc2ccccc2)CCN1Cc1ccc(F)cc1 (configuration not stated) | inactive |
| CCCc1cc(=O)oc2c(C)c(OCC(=O)NCc3ccccn3)ccc12 | inconclusive: 20.6 µM [falling, partial curve, poor fit] |
| CCCCNC(=O)c1ccc2c(=O)n(CCCOCC)c(=S)[nH]c2c1 | inconclusive: 0.231 µM [activator, full curve, poor fit] |
| Cc1ccc(Cl)cc1N1CCN(C(=O)c2cnn(C)c2C2CCN(C(=O)OC(C)(C)C)CC2)CC1 | inconclusive: 29.1 µM [falling, single point] |
| c1ccc2c(c1)CCCN2c1nc(N2CCOCC2)nc(N2CCOCC2)n1 | inactive |
| CCn1cc(/C=C(\NC(=O)c2ccc(C)cc2)C(=O)NCCCn2ccnc2)c2ccccc21 | inactive |
| CC(/C=N/NC(=O)c1ccncc1)=C\c1ccccc1 | inconclusive: 29.1 µM [falling, single point] |
| Cc1ccc2c(=O)cc(C(=O)NCc3ccccc3)oc2c1 | inconclusive: 25.9 µM [falling, single point] |
| Cn1ccnc1C(=O)c1ccc(NN)c([N+](=O)[O-])c1 | inconclusive: 13 µM [falling, partial curve, poor fit] |
| CCN1C[C@@H]2[C@@H]3C(=O)N(Cc4ccccc4)C(=O)[C@@H]3[C@](Cc3ccccc3)(C1=O)N2C(=O)c1ccc(C(C)(C)C)cc1 | inconclusive: 18.4 µM [falling, single point] |
| C=CC(C)(O)CCC=C(C)C (configuration not stated) | inactive |
| COC(=O)c1sccc1NC(=O)c1cccc(OC)c1 | inactive |
| CCc1cccc2c(C(=O)COC(=O)c3nccnc3N)c[nH]c12 | inconclusive: 29.1 µM [activator, single point] |
| O=C(Nc1ccc(N2CCCC(O)C2)cc1)c1snc2c(=O)[nH]cnc12 (configuration not stated) | inconclusive: 0.82 µM [falling, full curve, poor fit] |
| O=C(O)CC(c1ccccc1)N1C(=O)c2ccccc2C1=O (configuration not stated) | inconclusive: 8.2 µM [falling, partial curve, poor fit] |
| COc1cc(/C=C2\SC(N3CCC(C)CC3)=NC2=O)ccc1O | inactive |
| COc1ccccc1-c1cccc([C@@H]2C[C@H]3[C@H](CON3C)CN2S(=O)(=O)c2ccccc2C)c1 | inconclusive: 29.1 µM [falling, partial curve, poor fit] |

5 consecutive compounds already listed:

| SMILES | Potency |
| --- | --- |
| CC(/C=N/NC(=O)c1ccncc1)=C\c1ccccc1 | inconclusive: 29.1 µM [falling, single point] |
| Cc1ccc2c(=O)cc(C(=O)NCc3ccccc3)oc2c1 | inconclusive: 25.9 µM [falling, single point] |
| Cn1ccnc1C(=O)c1ccc(NN)c([N+](=O)[O-])c1 | inconclusive: 13 µM [falling, partial curve, poor fit] |
| CCN1C[C@@H]2[C@@H]3C(=O)N(Cc4ccccc4)C(=O)[C@@H]3[C@](Cc3ccccc3)(C1=O)N2C(=O)c1ccc(C(C)(C)C)cc1 | inconclusive: 18.4 µM [falling, single point] |
| C=CC(C)(O)CCC=C(C)C (configuration not stated) | inactive |

Reference: PubChem BioAssay AID504444 (National Center for Advancing Translational Sciences (NCATS), 2011)
